Results are given in words; binding and its absence hold for the method and conditions named. Binding calls can cover weak binding; strength is not graded here.
How the values were obtained:
[1] = molecular target: FRUITFULL 2 (FUL2) (tomato); assay: two-hybrid; yeast, HybriZAP-2.1 system; pAD-GAL4 fusion against pBD-GAL4-Cam fusion; X-gal test; room temperature and 30 °C, same results
[2] = molecular target: TOMATO AGAMOUS-LIKE 1 (TAGL1) (tomato) (UniProt E9JUM2); assay: as above
[3] = molecular target: FRUITFULL 2 (FUL2) (tomato); assay: two-hybrid; yeast, HybriZAP-2.1 system; pAD-GAL4 fusion against pBD-GAL4-Cam fusion; growth on -LTA medium; room temperature and 30 °C, same results
[4] = molecular target: TOMATO AGAMOUS-LIKE 1 (TAGL1) (tomato) (UniProt E9JUM2); assay: as above
[5] = molecular target: FRUITFULL 2 (FUL2) (tomato); assay: two-hybrid; yeast, HybriZAP-2.1 system; pAD-GAL4 fusion against pBD-GAL4-Cam fusion; growth on -LTH medium + 10 mM 3AT; room temperature and 30 °C, same results
[6] = molecular target: TOMATO AGAMOUS-LIKE 1 (TAGL1) (tomato) (UniProt E9JUM2); assay: as above

Chains of the proteins cited; added tags and fusions are not shown. Lines headed by an entry give the natural chain unless they say otherwise; changes in a name come on top.
UniProt Q8S4L4: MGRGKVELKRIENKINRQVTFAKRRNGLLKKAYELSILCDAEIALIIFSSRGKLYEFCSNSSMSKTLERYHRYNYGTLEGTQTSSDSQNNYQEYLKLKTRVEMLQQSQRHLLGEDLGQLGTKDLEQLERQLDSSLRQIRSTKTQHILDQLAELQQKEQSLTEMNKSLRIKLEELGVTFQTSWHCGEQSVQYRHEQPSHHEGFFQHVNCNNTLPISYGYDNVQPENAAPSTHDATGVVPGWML

Measured: binding

RIN1 (MADS-domain RIPENING INHIBITOR, isoform RIN1) (from UniProt Q8S4L4 1-242)
binds: all assays above

From paper PMC8304285
